Laboratory results from the supplement of paper PMC11438910.
The list shows a part of the results. Most of these values are background signal.

Key:
Assay in all cases: fluorescence intensity of antibody binding to polysaccharide-coupled beads; higher = stronger binding
[1] = biological target: pneumococcal polysaccharide Pn31
Description: (§1)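 Recombinant rhesus-murine chimeric IgG1 antibodies were tested against antigen-coupled MagPlex beads in a 96-plex Luminex direct immunoassay (dLIA). The beads carried pneumococcal capsular polysaccharides of 93 serotypes plus C-polysaccharides. Antibody was added at 0.1–12,500 ng/mL for 1 h, then PE anti-mouse IgG, and net MFI was read on a Bio-Plex 3D. Only the rhesus variable regions are printed; constant regions are murine IgG1/kappa/lambda, and the signal peptide is MGWSCIILFLVATATGVHS.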

[2] = biological target: pneumococcal polysaccharide Pn32A
Description: as §1

[3] = biological target: pneumococcal polysaccharide Pn32F
Description: as §1

[4] = biological target: pneumococcal polysaccharide Pn33A
Description: as §1

[5] = biological target: pneumococcal polysaccharide Pn33B
Description: as §1

[6] = biological target: pneumococcal polysaccharide Pn33C
Description: as §1

[7] = biological target: pneumococcal polysaccharide Pn33D
Description: as §1

[8] = biological target: pneumococcal polysaccharide Pn33F
Description: as §1

[9] = biological target: pneumococcal polysaccharide Pn34
Description: as §1

[10] = biological target: pneumococcal polysaccharide Pn35A
Description: as §1

[11] = biological target: pneumococcal polysaccharide Pn35B
Description: as §1

[12] = biological target: pneumococcal polysaccharide Pn35C
Description: as §1

[13] = antibody concentration 81.7561 ng/mL
[14] = antibody concentration 437.17 ng/mL
[15] = antibody concentration 2337.65 ng/mL
[16] = antibody concentration 12500 ng/mL
[17] = antibody concentration 0.1 ng/mL
[18] = antibody concentration 0.534724 ng/mL
[19] = antibody concentration 2.8593 ng/mL
[20] = antibody concentration 15.2894 ng/mL

B1: 4-99.4 (protein)
chain 1: QVQLQESGPGLVKPSETLSLTCAVSGYSISSAYFWGWIRQPPGKGLEYIGYISGEGGKSYYNPSLMSRVTISKDTSKNQFSLKLNTVTAADTAVYYCARRAILVGFDLWGQGVLVTVSS
chain 2: QAAPTQPPSVSGSPGQSVTISCTGSNSDIGYYNAVSWYQQHPGKAPKLMIYEVSKRPSGVSDRLTGSKSGNTASLTISGLQAEDEADYYCSSYAGSNTYIFGTGTRLTVL
[1]; [13]
  fluorescence intensity: 14 MFI
[1]; [14]
  fluorescence intensity: 15.5 MFI
[1]; [15]
  fluorescence intensity: 16.5 MFI
[1]; [16]
  fluorescence intensity: 65 MFI
[2]; [17]
  fluorescence intensity: 17.5 MFI
[2]; [18]
  fluorescence intensity: 18 MFI
[2]; [19]
  fluorescence intensity: 17.5 MFI
[2]; [20]
  fluorescence intensity: 19 MFI
[2]; [13]
  fluorescence intensity: 18.5 MFI
[2]; [14]
  fluorescence intensity: 19 MFI
[2]; [15]
  fluorescence intensity: 19.5 MFI
[2]; [16]
  fluorescence intensity: 37 MFI
[3]; [17]
  fluorescence intensity: 29 MFI
[3]; [18]
  fluorescence intensity: 29 MFI
[3]; [19]
  fluorescence intensity: 28.5 MFI
[3]; [20]
  fluorescence intensity: 28 MFI
[3]; [13]
  fluorescence intensity: 28.8 MFI
[3]; [14]
  fluorescence intensity: 31.5 MFI
[3]; [15]
  fluorescence intensity: 34.5 MFI
[3]; [16]
  fluorescence intensity: 64.8 MFI
[4]; [17]
  fluorescence intensity: 17.5 MFI
[4]; [18]
  fluorescence intensity: 20 MFI
[4]; [19]
  fluorescence intensity: 17 MFI
[4]; [20]
  fluorescence intensity: 19.8 MFI
[4]; [13]
  fluorescence intensity: 18 MFI
[4]; [14]
  fluorescence intensity: 20 MFI
[4]; [15]
  fluorescence intensity: 32 MFI
[4]; [16]
  fluorescence intensity: 194 MFI
[5]; [17]
  fluorescence intensity: 17 MFI
[5]; [18]
  fluorescence intensity: 18.5 MFI
[5]; [19]
  fluorescence intensity: 17.5 MFI
[5]; [20]
  fluorescence intensity: 17.5 MFI
[5]; [13]
  fluorescence intensity: 18.5 MFI
[5]; [14]
  fluorescence intensity: 17.8 MFI
[5]; [15]
  fluorescence intensity: 19 MFI
[5]; [16]
  fluorescence intensity: 22.5 MFI
[6]; [17]
  fluorescence intensity: 20 MFI
[6]; [18]
  fluorescence intensity: 18.5 MFI
[6]; [19]
  fluorescence intensity: 19 MFI
[6]; [20]
  fluorescence intensity: 19.5 MFI
[6]; [13]
  fluorescence intensity: 19.5 MFI
[6]; [14]
  fluorescence intensity: 20 MFI
[6]; [15]
  fluorescence intensity: 19.8 MFI
[6]; [16]
  fluorescence intensity: 36 MFI
[7]; [17]
  fluorescence intensity: 16.8 MFI
[7]; [18]
  fluorescence intensity: 16.8 MFI
[7]; [19]
  fluorescence intensity: 16.5 MFI
[7]; [20]
  fluorescence intensity: 15.5 MFI
[7]; [13]
  fluorescence intensity: 15 MFI
[7]; [14]
  fluorescence intensity: 16 MFI
[7]; [15]
  fluorescence intensity: 17 MFI
[7]; [16]
  fluorescence intensity: 23 MFI
[8]; [17]
  fluorescence intensity: 13 MFI
[8]; [18]
  fluorescence intensity: 13.8 MFI
[8]; [19]
  fluorescence intensity: 13 MFI
[8]; [20]
  fluorescence intensity: 15 MFI
[8]; [13]
  fluorescence intensity: 13 MFI
[8]; [14]
  fluorescence intensity: 15 MFI
[8]; [15]
  fluorescence intensity: 18.5 MFI
[8]; [16]
  fluorescence intensity: 91 MFI
[9]; [17]
  fluorescence intensity: 12.5 MFI
[9]; [18]
  fluorescence intensity: 15 MFI
[9]; [19]
  fluorescence intensity: 15 MFI
[9]; [20]
  fluorescence intensity: 15 MFI
[9]; [13]
  fluorescence intensity: 15.5 MFI
[9]; [14]
  fluorescence intensity: 15 MFI
[9]; [15]
  fluorescence intensity: 15.5 MFI
[9]; [16]
  fluorescence intensity: 19.8 MFI
[10]; [17]
  fluorescence intensity: 18.2 MFI
[10]; [18]
  fluorescence intensity: 17.5 MFI
[10]; [19]
  fluorescence intensity: 18 MFI
[10]; [20]
  fluorescence intensity: 17.8 MFI
[10]; [13]
  fluorescence intensity: 17 MFI
[10]; [14]
  fluorescence intensity: 17 MFI
[10]; [15]
  fluorescence intensity: 19.5 MFI
[10]; [16]
  fluorescence intensity: 48.5 MFI
[11]; [17]
  fluorescence intensity: 19.2 MFI
[11]; [18]
  fluorescence intensity: 19 MFI
[11]; [19]
  fluorescence intensity: 18 MFI
[11]; [20]
  fluorescence intensity: 17.8 MFI
[11]; [13]
  fluorescence intensity: 19.2 MFI
[11]; [14]
  fluorescence intensity: 19.5 MFI
[11]; [15]
  fluorescence intensity: 20 MFI
[11]; [16]
  fluorescence intensity: 37.5 MFI
[12]; [17]
  fluorescence intensity: 19.8 MFI
[12]; [18]
  fluorescence intensity: 20.5 MFI
[12]; [19]
  fluorescence intensity: 19.5 MFI
[12]; [20]
  fluorescence intensity: 19.5 MFI
[12]; [13]
  fluorescence intensity: 20.5 MFI
[12]; [14]
  fluorescence intensity: 20.2 MFI
